Measured data: PubChem BioAssay AID1508597 (Cure First, 2020)

Test: 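Knock-downs altering ovarian cancer cell survival with or without PARP inhibitor rucaparib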 (primary screen)
Cell system: human ovarian carcinoma lines grown from tumours: OCI-P5x (papillary serous) and OCI-C5x (clear cell)
Knock-down reagent: siRNA pool against human genes, 1.25 pmol siRNA per well
Time to read-out: 72 h or 96 h, depending on the cell culture
Conditions: rucaparib 20 µM (about IC30) or vehicle, present until read-out
Rucaparib or vehicle: Vehicle
Cell line: OCI-C5x (clear cell)
Measurement: 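Luminescent ATP-based viability assay read 72 or 96 h after transfection, depending on culture, given as normalised percent viability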
Reading the numbers: viability, normalised: higher = more viable cells remaining
Call rule: 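Active when normalised viability falls below 80 percent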
Calls: active = viability under 80%; inactive = viability 80% or more
This is an unselected part of the about 2,100 reagents, under one of the conditions tested. 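Calls flag viability under 80% in either arm, not effects specific to rucaparib; the reference for percent is not stated.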 Some reagents were tested in more than one well and are listed for each. Not stated in the record: the 100% reference.

KDM8 (GeneID 79831), technical replicate 1 — viability, normalised (%): 50.4; call: active
KDM8 (GeneID 79831), technical replicate 2 — viability, normalised (%): 55; call: active
KDM8 (GeneID 79831), technical replicate 3 — viability, normalised (%): 63.9; call: active
MAP4K5 (GeneID 11183), technical replicate 1 — viability, normalised (%): 91.1; call: inactive
MAP4K5 (GeneID 11183), technical replicate 2 — viability, normalised (%): 52.5; call: active
MAP4K5 (GeneID 11183), technical replicate 3 — viability, normalised (%): 45.9; call: active
DDX19B (GeneID 11269), technical replicate 1 — viability, normalised (%): 41.1; call: active
DDX19B (GeneID 11269), technical replicate 2 — viability, normalised (%): 44.5; call: active
DDX19B (GeneID 11269), technical replicate 3 — viability, normalised (%): 37.9; call: active
MPP4 (GeneID 58538), technical replicate 1 — viability, normalised (%): 61.5; call: active
MPP4 (GeneID 58538), technical replicate 2 — viability, normalised (%): 65.7; call: active
MPP4 (GeneID 58538), technical replicate 3 — viability, normalised (%): 67; call: active

Quoted from the entries so far for reference:
KDM8 (GeneID 79831), technical replicate 3 — viability, normalised (%): 63.9; call: active
MAP4K5 (GeneID 11183), technical replicate 1 — viability, normalised (%): 91.1; call: inactive
MAP4K5 (GeneID 11183), technical replicate 2 — viability, normalised (%): 52.5; call: active

Further entries follow:
CSNK1G3 (GeneID 1456), technical replicate 1 — viability, normalised (%): 115; call: inactive
CSNK1G3 (GeneID 1456), technical replicate 2 — viability, normalised (%): 65.4; call: active
CSNK1G3 (GeneID 1456), technical replicate 3 — viability, normalised (%): 63.5; call: active
NOG (GeneID 9241), technical replicate 1 — viability, normalised (%): 31.6; call: active
NOG (GeneID 9241), technical replicate 2 — viability, normalised (%): 33.2; call: active
NOG (GeneID 9241), technical replicate 3 — viability, normalised (%): 38.8; call: active
EZH1 (GeneID 2145), technical replicate 1 — viability, normalised (%): 44.1; call: active
EZH1 (GeneID 2145), technical replicate 2 — viability, normalised (%): 45.8; call: active
EZH1 (GeneID 2145), technical replicate 3 — viability, normalised (%): 54.8; call: active
HKDC1 (GeneID 80201), technical replicate 1 — viability, normalised (%): 54.4; call: active
HKDC1 (GeneID 80201), technical replicate 2 — viability, normalised (%): 38.3; call: active
HKDC1 (GeneID 80201), technical replicate 3 — viability, normalised (%): 67.6; call: active
MATK (GeneID 4145), technical replicate 1 — viability, normalised (%): 117; call: inactive
MATK (GeneID 4145), technical replicate 1 — viability, normalised (%): 63.8; call: active
MATK (GeneID 4145), technical replicate 2 — viability, normalised (%): 55.7; call: active
MATK (GeneID 4145), technical replicate 2 — viability, normalised (%): 67.1; call: active
MATK (GeneID 4145), technical replicate 3 — viability, normalised (%): 73.9; call: active
MATK (GeneID 4145), technical replicate 3 — viability, normalised (%): 72.8; call: active
RP2 (GeneID 6102), technical replicate 1 — viability, normalised (%): 27.6; call: active
RP2 (GeneID 6102), technical replicate 2 — viability, normalised (%): 39.7; call: active
RP2 (GeneID 6102), technical replicate 3 — viability, normalised (%): 31.3; call: active
